From the supplement of paper PMC11006884
The list shows a part of the results, in another mix than the full data.

The chains behind the UniProt entries cited, without tags or fusion partners. Where a name states a change or a piece, a line headed by the entry shows the natural chain unless it says otherwise.
UniProt P52789: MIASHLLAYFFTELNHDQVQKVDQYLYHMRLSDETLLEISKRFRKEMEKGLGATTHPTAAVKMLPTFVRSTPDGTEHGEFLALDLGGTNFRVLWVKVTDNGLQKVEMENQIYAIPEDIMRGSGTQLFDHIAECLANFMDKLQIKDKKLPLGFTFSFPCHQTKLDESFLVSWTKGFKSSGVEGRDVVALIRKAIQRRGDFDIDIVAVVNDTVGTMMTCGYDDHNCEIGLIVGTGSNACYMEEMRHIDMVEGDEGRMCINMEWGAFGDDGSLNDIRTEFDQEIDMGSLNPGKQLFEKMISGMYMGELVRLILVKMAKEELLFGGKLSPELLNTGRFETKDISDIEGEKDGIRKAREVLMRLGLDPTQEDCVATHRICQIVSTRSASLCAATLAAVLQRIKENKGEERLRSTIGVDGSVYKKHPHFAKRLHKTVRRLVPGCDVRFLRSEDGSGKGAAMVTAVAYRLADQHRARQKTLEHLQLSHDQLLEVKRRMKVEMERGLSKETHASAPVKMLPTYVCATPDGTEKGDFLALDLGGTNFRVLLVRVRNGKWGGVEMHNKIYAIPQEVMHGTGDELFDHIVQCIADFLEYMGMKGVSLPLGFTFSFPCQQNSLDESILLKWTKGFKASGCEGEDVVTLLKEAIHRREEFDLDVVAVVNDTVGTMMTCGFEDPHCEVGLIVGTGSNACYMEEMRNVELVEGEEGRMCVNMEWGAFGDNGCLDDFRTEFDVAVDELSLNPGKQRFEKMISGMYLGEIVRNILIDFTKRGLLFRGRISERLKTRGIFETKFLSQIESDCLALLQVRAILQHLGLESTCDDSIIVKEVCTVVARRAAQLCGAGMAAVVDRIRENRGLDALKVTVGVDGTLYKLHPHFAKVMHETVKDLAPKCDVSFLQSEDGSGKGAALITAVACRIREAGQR
UniProt P55795: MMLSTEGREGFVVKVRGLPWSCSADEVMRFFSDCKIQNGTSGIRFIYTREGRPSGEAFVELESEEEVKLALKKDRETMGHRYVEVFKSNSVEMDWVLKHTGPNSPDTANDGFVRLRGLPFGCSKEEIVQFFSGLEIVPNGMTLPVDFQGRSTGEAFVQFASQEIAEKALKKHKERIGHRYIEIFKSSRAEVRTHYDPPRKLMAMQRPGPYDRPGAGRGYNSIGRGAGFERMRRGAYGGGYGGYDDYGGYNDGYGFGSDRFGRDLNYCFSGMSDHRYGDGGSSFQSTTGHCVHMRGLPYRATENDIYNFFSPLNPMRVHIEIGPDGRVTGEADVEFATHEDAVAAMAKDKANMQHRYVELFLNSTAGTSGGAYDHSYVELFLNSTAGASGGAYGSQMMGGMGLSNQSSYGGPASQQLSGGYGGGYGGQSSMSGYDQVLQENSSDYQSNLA
UniProt P55265: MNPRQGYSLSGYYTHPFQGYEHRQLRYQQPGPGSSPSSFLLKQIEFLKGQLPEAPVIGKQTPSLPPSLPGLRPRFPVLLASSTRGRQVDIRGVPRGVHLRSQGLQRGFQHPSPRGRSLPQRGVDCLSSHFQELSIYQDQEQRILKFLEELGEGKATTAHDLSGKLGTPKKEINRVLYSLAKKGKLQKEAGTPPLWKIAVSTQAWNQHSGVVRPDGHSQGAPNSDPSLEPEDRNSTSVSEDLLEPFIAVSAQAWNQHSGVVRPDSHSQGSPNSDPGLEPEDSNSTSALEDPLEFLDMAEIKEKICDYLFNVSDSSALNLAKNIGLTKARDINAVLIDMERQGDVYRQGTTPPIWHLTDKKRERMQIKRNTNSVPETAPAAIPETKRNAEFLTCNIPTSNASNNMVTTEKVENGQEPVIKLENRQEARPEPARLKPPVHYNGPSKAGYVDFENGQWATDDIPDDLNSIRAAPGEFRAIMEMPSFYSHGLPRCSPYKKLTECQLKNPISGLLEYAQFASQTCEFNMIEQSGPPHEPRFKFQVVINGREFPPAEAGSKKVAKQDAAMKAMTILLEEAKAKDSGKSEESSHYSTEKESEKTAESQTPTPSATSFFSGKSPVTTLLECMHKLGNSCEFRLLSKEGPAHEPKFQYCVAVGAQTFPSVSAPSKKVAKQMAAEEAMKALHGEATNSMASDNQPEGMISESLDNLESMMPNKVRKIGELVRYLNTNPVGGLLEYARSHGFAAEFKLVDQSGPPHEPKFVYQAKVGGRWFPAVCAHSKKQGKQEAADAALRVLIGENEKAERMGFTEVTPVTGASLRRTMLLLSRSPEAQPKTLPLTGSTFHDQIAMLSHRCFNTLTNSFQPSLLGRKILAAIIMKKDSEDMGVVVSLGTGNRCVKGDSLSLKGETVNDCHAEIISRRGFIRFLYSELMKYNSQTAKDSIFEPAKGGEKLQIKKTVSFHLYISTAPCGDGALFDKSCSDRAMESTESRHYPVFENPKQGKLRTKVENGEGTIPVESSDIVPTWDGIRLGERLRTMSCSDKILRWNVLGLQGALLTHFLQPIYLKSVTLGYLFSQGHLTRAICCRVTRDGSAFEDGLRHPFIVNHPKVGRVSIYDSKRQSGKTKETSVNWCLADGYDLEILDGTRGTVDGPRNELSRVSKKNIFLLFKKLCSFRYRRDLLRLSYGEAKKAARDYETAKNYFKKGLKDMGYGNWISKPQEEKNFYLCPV
UniProt P53621: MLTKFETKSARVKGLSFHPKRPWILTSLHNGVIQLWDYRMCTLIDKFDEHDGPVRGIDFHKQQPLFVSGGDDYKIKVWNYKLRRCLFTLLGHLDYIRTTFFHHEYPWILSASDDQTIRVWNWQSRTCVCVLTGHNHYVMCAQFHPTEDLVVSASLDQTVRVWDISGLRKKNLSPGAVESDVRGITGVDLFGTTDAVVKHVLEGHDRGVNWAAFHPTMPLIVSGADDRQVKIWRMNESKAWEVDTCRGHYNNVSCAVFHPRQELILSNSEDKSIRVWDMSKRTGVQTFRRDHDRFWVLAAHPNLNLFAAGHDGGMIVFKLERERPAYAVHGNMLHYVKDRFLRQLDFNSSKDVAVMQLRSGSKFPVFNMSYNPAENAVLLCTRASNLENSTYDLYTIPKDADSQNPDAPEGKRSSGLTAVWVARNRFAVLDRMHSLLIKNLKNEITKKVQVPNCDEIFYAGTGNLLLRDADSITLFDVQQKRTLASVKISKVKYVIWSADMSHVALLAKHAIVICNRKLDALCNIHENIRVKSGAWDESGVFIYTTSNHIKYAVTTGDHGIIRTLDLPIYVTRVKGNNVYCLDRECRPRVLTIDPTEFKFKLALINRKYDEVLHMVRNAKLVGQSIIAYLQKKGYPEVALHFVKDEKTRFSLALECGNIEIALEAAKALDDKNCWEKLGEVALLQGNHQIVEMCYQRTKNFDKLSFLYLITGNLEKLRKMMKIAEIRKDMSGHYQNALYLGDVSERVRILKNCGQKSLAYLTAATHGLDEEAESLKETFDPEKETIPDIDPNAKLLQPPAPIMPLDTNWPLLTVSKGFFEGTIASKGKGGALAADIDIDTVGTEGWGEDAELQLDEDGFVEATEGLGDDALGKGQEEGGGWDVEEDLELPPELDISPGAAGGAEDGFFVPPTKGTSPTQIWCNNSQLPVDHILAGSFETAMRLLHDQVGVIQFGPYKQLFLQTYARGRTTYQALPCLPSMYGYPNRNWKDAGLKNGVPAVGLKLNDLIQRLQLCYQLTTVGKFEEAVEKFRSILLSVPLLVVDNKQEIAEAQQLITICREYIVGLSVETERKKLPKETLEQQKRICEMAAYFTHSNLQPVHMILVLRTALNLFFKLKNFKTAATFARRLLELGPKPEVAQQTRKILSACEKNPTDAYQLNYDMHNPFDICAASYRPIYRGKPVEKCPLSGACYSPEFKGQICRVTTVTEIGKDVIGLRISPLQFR
UniProt P55769: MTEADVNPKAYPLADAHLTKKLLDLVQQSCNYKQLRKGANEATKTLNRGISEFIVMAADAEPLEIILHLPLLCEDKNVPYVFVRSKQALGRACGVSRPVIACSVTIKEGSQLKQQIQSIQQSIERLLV
UniProt P55010, whole entry: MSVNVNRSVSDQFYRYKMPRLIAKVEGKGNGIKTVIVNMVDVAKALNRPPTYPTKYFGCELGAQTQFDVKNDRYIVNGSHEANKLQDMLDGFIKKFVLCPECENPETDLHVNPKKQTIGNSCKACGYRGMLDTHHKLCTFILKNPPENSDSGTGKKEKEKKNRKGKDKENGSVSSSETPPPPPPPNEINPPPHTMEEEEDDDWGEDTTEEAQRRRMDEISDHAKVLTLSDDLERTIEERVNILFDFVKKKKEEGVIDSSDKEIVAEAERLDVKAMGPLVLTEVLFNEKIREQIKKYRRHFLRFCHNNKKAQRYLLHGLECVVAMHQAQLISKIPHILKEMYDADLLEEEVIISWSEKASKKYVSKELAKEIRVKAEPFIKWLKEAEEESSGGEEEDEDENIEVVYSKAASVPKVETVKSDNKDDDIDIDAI
UniProt P60174, whole entry, looked up: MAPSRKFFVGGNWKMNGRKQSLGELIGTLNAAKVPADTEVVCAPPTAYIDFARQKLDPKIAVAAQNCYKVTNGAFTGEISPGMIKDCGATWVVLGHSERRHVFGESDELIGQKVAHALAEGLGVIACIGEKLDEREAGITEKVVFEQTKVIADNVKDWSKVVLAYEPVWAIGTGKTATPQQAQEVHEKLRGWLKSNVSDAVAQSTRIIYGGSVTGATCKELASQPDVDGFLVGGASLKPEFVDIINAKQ
UniProt P54886: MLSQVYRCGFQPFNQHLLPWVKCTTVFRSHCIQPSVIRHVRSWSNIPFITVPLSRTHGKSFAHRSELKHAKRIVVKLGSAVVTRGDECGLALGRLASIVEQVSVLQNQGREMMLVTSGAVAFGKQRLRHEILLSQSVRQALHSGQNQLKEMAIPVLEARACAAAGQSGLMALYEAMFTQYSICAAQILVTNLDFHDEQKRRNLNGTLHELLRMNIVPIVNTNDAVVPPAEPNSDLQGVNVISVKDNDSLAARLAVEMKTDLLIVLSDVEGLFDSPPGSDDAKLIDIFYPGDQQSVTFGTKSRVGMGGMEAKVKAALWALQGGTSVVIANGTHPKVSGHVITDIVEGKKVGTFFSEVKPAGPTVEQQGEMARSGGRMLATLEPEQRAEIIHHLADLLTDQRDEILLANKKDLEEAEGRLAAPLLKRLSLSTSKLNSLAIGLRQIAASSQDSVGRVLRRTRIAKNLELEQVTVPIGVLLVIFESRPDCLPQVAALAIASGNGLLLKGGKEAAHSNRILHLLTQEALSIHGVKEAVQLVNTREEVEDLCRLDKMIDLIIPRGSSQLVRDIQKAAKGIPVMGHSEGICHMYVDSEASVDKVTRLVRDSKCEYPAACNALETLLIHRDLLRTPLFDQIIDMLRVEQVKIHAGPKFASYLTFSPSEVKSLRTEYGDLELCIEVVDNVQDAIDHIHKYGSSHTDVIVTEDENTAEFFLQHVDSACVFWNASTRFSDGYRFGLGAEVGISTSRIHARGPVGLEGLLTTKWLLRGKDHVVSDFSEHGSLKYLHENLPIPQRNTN
UniProt P51812, whole entry, looked up: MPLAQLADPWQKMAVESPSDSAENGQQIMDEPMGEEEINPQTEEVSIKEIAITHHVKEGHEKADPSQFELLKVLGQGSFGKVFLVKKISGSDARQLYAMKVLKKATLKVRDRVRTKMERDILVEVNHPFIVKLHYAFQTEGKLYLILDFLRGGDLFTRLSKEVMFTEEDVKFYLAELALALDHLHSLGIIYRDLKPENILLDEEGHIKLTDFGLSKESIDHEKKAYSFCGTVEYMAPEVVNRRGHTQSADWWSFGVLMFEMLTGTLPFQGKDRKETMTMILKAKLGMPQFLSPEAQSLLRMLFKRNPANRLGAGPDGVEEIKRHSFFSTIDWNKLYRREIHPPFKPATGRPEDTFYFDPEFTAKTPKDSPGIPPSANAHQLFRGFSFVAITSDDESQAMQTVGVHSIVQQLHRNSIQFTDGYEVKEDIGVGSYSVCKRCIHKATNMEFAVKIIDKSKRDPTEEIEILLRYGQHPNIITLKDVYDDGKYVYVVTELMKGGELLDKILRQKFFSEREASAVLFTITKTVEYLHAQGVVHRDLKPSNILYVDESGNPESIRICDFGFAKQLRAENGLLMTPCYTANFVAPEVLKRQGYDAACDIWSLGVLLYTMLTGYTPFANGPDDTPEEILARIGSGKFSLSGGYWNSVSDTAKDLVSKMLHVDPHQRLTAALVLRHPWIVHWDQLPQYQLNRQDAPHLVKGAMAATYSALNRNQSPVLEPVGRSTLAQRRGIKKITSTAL
UniProt P52564: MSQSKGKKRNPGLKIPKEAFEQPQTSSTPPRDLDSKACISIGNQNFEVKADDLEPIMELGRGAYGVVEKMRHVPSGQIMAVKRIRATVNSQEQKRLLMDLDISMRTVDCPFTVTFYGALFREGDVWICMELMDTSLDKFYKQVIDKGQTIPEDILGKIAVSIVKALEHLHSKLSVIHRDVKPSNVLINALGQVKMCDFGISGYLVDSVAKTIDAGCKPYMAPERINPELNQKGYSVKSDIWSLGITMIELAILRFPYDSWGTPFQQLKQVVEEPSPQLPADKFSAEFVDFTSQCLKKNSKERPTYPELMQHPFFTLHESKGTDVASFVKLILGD

Compound: COC(=O)C#Cc1ccccc1 [methyl 3-phenylpropiolate]
Assay: log2 ratio of iodoacetamide-alkyne labeling of the cysteine site, DMSO over compound (competition); higher = stronger covalent engagement of the cysteine by the compound, active = 1 or more
Details: 500 µM; treatment time 1 h; system: HEK293T cell lysate
In short: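 Three replicates, each with duplicate channels, were prepared from HEK293T lysate (2 mg/mL) treated with vehicle or electrophile at 500 µM for 1 h at ambient temperature. Iodoacetamide alkyne was then applied for 1 h, and samples were clicked to sCIP-TMT reagents, pooled, trypsin-digested overnight at 37 °C, enriched on streptavidin, acid-eluted and analysed on Orbitrap Eclipse LC-MS/MS with FAIMS, with FragPipe quantification. The log2 competition ratio per cysteine is the mean control-channel divided by the mean compound-channel reporter intensity. Cysteines quantified in only one replicate were left out.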

log2 ratio of iodoacetamide-alkyne labeling, inactive:
HK2 C606 (UniProt P52789) 0.098
HNRNPH2 C34 (UniProt P55795) 0.0589
THOP1 C682 (UniProt P52888) 0.174
UniProt P55072_C522 0.173
MSH6 C1117 (UniProt P52701) 0.26
UniProt P60709_C285 0.0555
CTBP2 C44 (UniProt P56545) 0.023
RPS3A C139 (UniProt P61247) -0.123
ADAR C499 (UniProt P55265) 0.18
COPA C380 (UniProt P53621) 0.304
PPP5C C11 (UniProt P53041) 0.16
UniProt P55769_C30 -0.0266
EIF5 C59 (UniProt P55010) 0.0949
UniProt P60891_C226 0.257
KPNA1 C469 (UniProt P52294) 0.678
POLR2F C76 (UniProt P61218) 0.148
TPI1 C124 (UniProt P60174) -0.216
ALDH18A1 C612 (UniProt P54886) 0.146
HNRNPH2 C122 (UniProt P55795) -0.123
UniProt P51812_C229 0.751
UniProt P62244_C30 0.0206
PGD C170 (UniProt P52209) -0.0784
UniProt P52564_C196 0.274

Quoted at random: two entries already listed
log2 ratio of iodoacetamide-alkyne labeling, inactive:
RPS3A C139 (UniProt P61247) -0.123
CTBP2 C44 (UniProt P56545) 0.023
